From patent publication US20070134665

The chains behind the UniProt entries cited, without tags or fusion partners. Residues count along the entry.
UniProt P03023, 1-338: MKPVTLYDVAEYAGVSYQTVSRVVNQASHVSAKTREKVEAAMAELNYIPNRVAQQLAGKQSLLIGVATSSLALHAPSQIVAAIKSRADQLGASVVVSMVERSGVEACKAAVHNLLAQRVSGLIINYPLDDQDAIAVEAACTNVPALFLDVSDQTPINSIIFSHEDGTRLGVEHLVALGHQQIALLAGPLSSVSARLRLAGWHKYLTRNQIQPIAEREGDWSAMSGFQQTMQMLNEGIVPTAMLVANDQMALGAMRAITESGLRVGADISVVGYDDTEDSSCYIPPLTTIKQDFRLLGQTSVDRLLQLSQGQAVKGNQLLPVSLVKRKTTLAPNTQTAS

Tests used:
LacI(1-338)-SC35 fusion = LacI(1-338)-SC35 fusion (UniProt P03023); assay: binding assay; settings: protein in cells
LacI(1-338) = LacI(1-338) (UniProt P03023); assay: pull-down; settings: biotinylated O-Sym on streptavidin sepharose; 250 mM KCl, 4 C; protein in a lysate after overexpression; label: 5' Cy3 or biotin
[1] = biological target: LacI(1-338)-SC35 fusion (lysate) (UniProt P03023); assay: pull-down; settings: biotinylated O-Sym on streptavidin sepharose; 250 mM KCl, 20 mM Hepes pH 7.5, 4 C; mock beads as control; protein in a lysate after overexpression; label: 5' Cy3 or biotin

Sequence	binding result (LacI(1-338)-SC35 fusion; in situ fluorescence in fixed cells, 50-100 nM Cy3 O-Sym, 150 mM KCl, herring sperm DNA, 37 C, label: 5' Cy3 or biotin)	binding result (LacI(1-338))	binding result [1]	binding result (LacI(1-338)-SC35 fusion; multiplex detection in co-transfected cells, no co-localisation of signals, label: 5' Cy5 or biotin)
GCGTGTGCCAGAATTGTGAGCGCTCACAATTTCTTGAATCT / AGATTCAAGAAATTGTGAGCGCTCACAATTCTGGCTCACGC [O-Sym]	binds	binds	binds	
TCGAGTTTACTCCCTATCAGTGATAGAGAACGTATGTCGCC / GGCGACATACGTTCTCTATCACTGATAGGGAGTAAACTCGT [Tet-O]				no binding

At least one result comes from cells or an extract, where the contact may be indirect. For some of these results: Negatives hold for the conditions tested.
